PubChem BioAssay AID1671190 (National Center for Advancing Translational Sciences (NCATS), 2021)
Hit rate of the full screen: of about 580,000 compounds, about 6,100 (1.1%) were called active. Inconclusive means that the source gave no clear call. Such entries were picked first, then a sample of the others. Calls come from the whole dose curve; as a rule, active = well fitted inhibition curve with a large enough effect; inconclusive = small, poorly fitted or top-dose-only effect, or another doubt; inactive = no such curve, though single readings can be large or run the other way. Where the call is inconclusive, the potency comes from a doubtful curve fit.

Protein sequences, listed by entry. Tags and fused reporters are not part of them. Lines headed by an entry give the natural chain unless they say otherwise; changes in a name come on top.
UniProt P18054: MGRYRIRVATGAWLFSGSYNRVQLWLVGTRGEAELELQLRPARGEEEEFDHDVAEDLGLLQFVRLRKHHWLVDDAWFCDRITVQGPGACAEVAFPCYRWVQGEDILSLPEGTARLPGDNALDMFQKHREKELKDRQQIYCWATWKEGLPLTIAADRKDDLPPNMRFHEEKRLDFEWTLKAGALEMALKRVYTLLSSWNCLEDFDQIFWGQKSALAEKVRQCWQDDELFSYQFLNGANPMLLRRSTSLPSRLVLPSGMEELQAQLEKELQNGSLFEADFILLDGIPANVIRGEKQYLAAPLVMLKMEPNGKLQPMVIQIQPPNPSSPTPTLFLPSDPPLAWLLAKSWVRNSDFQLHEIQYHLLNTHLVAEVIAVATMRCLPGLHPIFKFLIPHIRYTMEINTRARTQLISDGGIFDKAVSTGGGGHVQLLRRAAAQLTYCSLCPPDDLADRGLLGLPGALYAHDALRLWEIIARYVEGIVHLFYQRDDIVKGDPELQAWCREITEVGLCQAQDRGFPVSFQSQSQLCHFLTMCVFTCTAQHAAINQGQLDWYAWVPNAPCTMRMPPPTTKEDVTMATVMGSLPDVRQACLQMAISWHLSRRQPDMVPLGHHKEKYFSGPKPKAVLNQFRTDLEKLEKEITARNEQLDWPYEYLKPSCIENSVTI

biological target: Polyunsaturated fatty acid lipoxygenase ALOX12 (Homo sapiens) (UniProt P18054); experiment: Primary qHTS assay for inhibitors of human arachidonate 12S-lipoxygenase (ALOX12): Round 2; settings: purified 12hLO, xylenol orange hydroperoxide absorbance; series mostly up to 108 µM
Method in brief: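 Purified human 12hLO at 150 nM in 25 mM Hepes, 0.01% Triton X-100, pH 7.0, preincubated 15 min at room temperature with compound. Reaction started with 40 uM arachidonic acid, 30 min at room temperature. Hydroperoxide measured by Fe-xylenol orange, 573/405 nm absorbance ratio.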
Potency is the fitted concentration of half-maximal effect.

Row | SMILES | Potency
1 | CCCCOc1ccc(/C=C(\C#N)C(=O)NC2CC2)cc1 | inconclusive: 100 µM [inhibitor, partial curve, poor fit]
2 | COc1ccc(S(=O)(=O)N2CCC3(CCC(=O)N(CC4CC4)CC3)CC2)cc1 | inconclusive: 44.7 µM [inhibitor, partial curve, poor fit]
3 | CCC1=C(c2ccc(C)cc2)S(=O)(=O)N=C1N1CCC(C(=O)N2CCCCC2)CC1 | inconclusive: 63.1 µM [inhibitor, partial curve, poor fit]
4 | Cc1cc(O)cc(O)c1C(=O)Cc1ccccc1 | inactive
5 | O=C(CSc1nncs1)Nc1cc(S(=O)(=O)N2CCOCC2)ccc1N1CCCC1 | inconclusive: 35.5 µM [inhibitor, partial curve, poor fit]
6 | CC(c1nc2ccccc2s1)N(C)C(=O)c1cccc(S(=O)(=O)Nc2ccc(Cl)cc2)c1 (centres undefined) | inconclusive: 39.8 µM [inhibitor, partial curve, poor fit]
7 | COc1cccc(C(CNC(=O)C2CCN(S(=O)(=O)c3ccc(C)c(C)c3)CC2)N(C)C)c1 (centres undefined) | inconclusive: 39.8 µM [inhibitor, partial curve, poor fit]
8 | Cc1[nH]n(-c2ccccc2)c(=O)c1N=Nc1ccc2c(c1)OCO2 | inactive
9 | Cn1cc(-c2nc3cnc(N4CCNCC4)nc3n(CCC#N)c2=O)c2ccccc21 | inconclusive: 112 µM [inhibitor, single point]
10 | COc1cccc(NC(=O)c2cccc(S(=O)(=O)N3CCN(Cc4ccccc4)CC3)c2)c1 | inactive
11 | Cc1ccc(C)c2sc(NC(=O)CN3C(=O)CCC3=O)nc12 | inactive
12 | Nc1ccsc1C(=O)N[C@H](Cc1ccncc1)C1CC(O)C1 (some centres undefined) | inactive
13 | Cc1cc(C)c(-n2[nH]nnc2=S)c(C)c1 | active: 11.2 µM
14 | C=CCOc1ccc(CNc2ccc(Oc3ccccc3)cc2)cc1OC | inconclusive: 1.41 µM [inhibitor, full curve, poor fit]
15 | COc1ccc(NC(=O)CN(C)CC(=O)c2[nH]c(C)c(C(C)=O)c2C)cc1 | inconclusive: 79.4 µM [inhibitor, partial curve, poor fit]
16 | CCOc1ccc(NC(=O)c2cc(=O)c3cc(C)ccc3o2)cc1OC | inconclusive: 141 µM [inhibitor, single point]
17 | COc1cc(NC(=O)c2ccc(Cl)cc2)c(OC)cc1NC(=O)CN1CCCCC1 | inactive
18 | CCOC(=O)CSc1ccc2nnc(-c3cccnc3)n2n1 | active: 31.6 µM
19 | S=C(Nc1ccccc1)Nc1ccc2ccccc2c1 | inconclusive: 44.7 µM [inhibitor, partial curve]
20 | O=[N+]([O-])c1ccc(NC(=S)NCc2ccc(F)cc2)cc1 | inconclusive: 44.7 µM [inhibitor, partial curve, poor fit]
21 | COc1ccc(C2CC(=O)C=C(NCC3CCCO3)C2)cc1 (centres undefined) | inconclusive: 2 µM [inhibitor, full curve, poor fit]
22 | O=[N+]([O-])c1cccnc1SCc1c(F)cccc1Cl | inconclusive: 112 µM [inhibitor, single point]

By substructure, the compounds so far containing fluorine.
Row | SMILES | Potency
20 | O=[N+]([O-])c1ccc(NC(=S)NCc2ccc(F)cc2)cc1 | inconclusive: 44.7 µM [inhibitor, partial curve, poor fit]
22 | O=[N+]([O-])c1cccnc1SCc1c(F)cccc1Cl | inconclusive: 112 µM [inhibitor, single point]

(more compounds)

Row | SMILES | Potency
23 | CC1Cc2ccccc2N1S(=O)(=O)c1cccc(C(=O)NCC(c2ccco2)N2CCCC2)c1 (centres undefined) | inconclusive: 39.8 µM [inhibitor, partial curve, poor fit]
24 | CN(C)c1ccc(C(CNS(=O)(=O)c2ccc3ccccc3c2)c2c[nH]c3ccccc23)cc1 (centres undefined) | inconclusive: 11.2 µM [inhibitor, full curve, poor fit]
25 | Cc1c(C(=O)OCCOc2ccccc2)[nH]c2c1C(=O)CC(c1ccccc1Cl)C2 (centres undefined) | inconclusive: 126 µM [inhibitor, partial curve, poor fit]
26 | CCN(Cc1ccccc1)S(=O)(=O)c1ccc2[nH]c3c(c2c1)CCCCC3 | inconclusive: 44.7 µM [inhibitor, partial curve, poor fit]
27 | Cc1cc(OCCOc2cccc3cccnc23)cc(C)c1Cl | inconclusive: 70.8 µM [inhibitor, partial curve, poor fit]
28 | Cc1ccc2c(COC(=O)COc3ccc(Br)cc3)cc(=O)oc2c1 | inactive
29 | Cc1ccc(C)c(N2CCN(C(=O)C3CCN(S(=O)(=O)c4cccc5nsnc45)CC3)CC2)c1 | inconclusive: 1.12 µM [inhibitor, partial curve, poor fit]
30 | CC(Oc1ccccc1Cl)C(=O)Nc1ccc(S(=O)(=O)N2CCN(C)CC2)cc1 (centres undefined) | inconclusive: 31.6 µM [inhibitor, partial curve, poor fit]
31 | COc1cccc(-c2nc(N3CC(C)CC(C)C3)c3ccccc3n2)c1O (centres undefined) | inactive
32 | COc1ccc(NC(=O)COC(=O)c2ccc(-n3nc(C)cc3C)cc2)cc1OC | inconclusive: 141 µM [inhibitor, single point]
33 | CN(C(=O)CSc1nnc(-c2cccc(F)c2)n1N)C1CCS(=O)(=O)C1 (centres undefined) | inactive
34 | Cc1ccc(S(=O)(=O)CC(=O)Nc2nnc(C)s2)cc1 | inconclusive: 7.94 µM [inhibitor, full curve, poor fit]
35 | COc1ccc(-c2noc(COC(=O)C3=CN(Cc4ccccc4)S(=O)(=O)N=C3C)n2)cc1 | inactive
36 | Cc1noc(NS(=O)(=O)c2ccc(N/C=C\C(=O)c3cccs3)cc2)c1C | inconclusive: 35.5 µM [inhibitor, single point]
37 | O=[N+]([O-])c1ccccc1S(=O)(=O)Nc1ccc(S(=O)(=O)Nc2nccs2)cc1 | inconclusive: 44.7 µM [inhibitor, partial curve, poor fit]
38 | O=C(NCc1ccc(F)cc1)C1CCCN(C(=O)c2cccc(C(F)(F)F)c2)C1 (centres undefined) | inconclusive: 44.7 µM [inhibitor, single point]
39 | O=C1/C(=C/c2cccnc2)SC(=S)N1NS(=O)(=O)c1ccccc1 | inconclusive: 31.6 µM [inhibitor, partial curve, poor fit]
40 | Cc1cn2nc(C(=O)N3CCC(NC(=O)c4ccc(Cl)cc4)CC3)cc2c(=O)[nH]1 | inconclusive: 35.5 µM [inhibitor, partial curve, poor fit]
41 | O=C1CCCCCN1CP(=O)(O)CN1CCCCCC1=O | inconclusive: 15.8 µM [inhibitor, full curve, poor fit]
42 | COc1ccc(N(CC(=O)Nc2c(C)cccc2C)S(=O)(=O)c2ccccc2[N+](=O)[O-])c(OC)c1 | inconclusive: 126 µM [inhibitor, single point]
43 | CN(C)/C=C/C(=O)c1ccc(-n2cccc2)cc1 | inconclusive: 11.2 µM [inhibitor, partial curve, poor fit]
44 | COc1ccccc1-c1[nH]nc2ncc(C(=O)N3CCNC(=O)C3)nc12 | inconclusive: 0.891 µM [inhibitor, full curve, poor fit]

An excerpt of these results, as a markdown table:

| Row | SMILES | Potency |
| --- | --- | --- |
| 41 | O=C1CCCCCN1CP(=O)(O)CN1CCCCCC1=O | inconclusive: 15.8 µM [inhibitor, full curve, poor fit] |
| 43 | CN(C)/C=C/C(=O)c1ccc(-n2cccc2)cc1 | inconclusive: 11.2 µM [inhibitor, partial curve, poor fit] |

(more compounds)

Row | SMILES | Potency
45 | COc1ccc(CNC[C@H]2Cn3c(-c4ccc(Cl)cc4)cnc3CO2)cc1 | active: 44.7 µM
46 | O=C(Cc1ccsc1)N1CCC2(CC1)CC(N1CCCCC1)CCO2 (centres undefined) | inactive
47 | Cc1cc(C)nc(NC(=O)Nc2cccc(Cl)c2)n1 | inactive
48 | CCOc1ccc(CCN2C(=S)N([C@@H](CC(C)C)CN3CCC[C@@H]3CN3C(=S)NC[C@@H]3Cc3ccc(O)cc3)C[C@@H]2CC(C)C)cc1 | inconclusive: 79.4 µM [inhibitor, single point]
49 | N/C(=N/OC(=O)c1ccccc1Cl)c1ncc([N+](=O)[O-])s1 | inconclusive: 100 µM [inhibitor, single point]
50 | c1ccc(Nc2ccc(-c3ccc(Nc4ccccc4)cc3)cc2)cc1 | inconclusive: 39.8 µM [inhibitor, partial curve, poor fit]
51 | COc1ccc2[nH]cc(CCNc3ncncc3-c3cccnc3)c2c1 | inconclusive: 50.1 µM [inhibitor, partial curve, poor fit]
52 | C[C@@H](NC(=O)c1cccnc1)c1onc(-c2cccnc2)c1C(=O)O | inconclusive: 44.7 µM [inhibitor, full curve]
53 | CCOc1cccc2cc(-c3nc(-c4ccccc4Cl)no3)c(=O)oc12 | inconclusive: 70.8 µM [inhibitor, single point]
54 | CC(C)(C)c1ccc(OCCN2CCCC2)cc1 | inconclusive: 0.355 µM [inhibitor, full curve, poor fit]
55 | C=C1SC(Nc2c(C)cccc2C)=NC12CCCCC2 | inconclusive: 44.7 µM [inhibitor, partial curve, poor fit]
56 | CSc1ccccc1-c1n[nH]c(=S)o1 | inactive
57 | CN=c1scc(-c2ccc(OC)cc2)n1/N=C(\C)c1cccnc1 | inactive
58 | CN(CCNC(=O)C1CCN(c2nc3cccnc3s2)CC1)C1CCCCC1 | inconclusive: 28.2 µM [inhibitor, single point]
59 | O=C(O)c1ccc(N/N=C/c2ccc(-c3ccc(Cl)cc3Cl)o2)cc1 | inconclusive: 50.1 µM [inhibitor, partial curve, poor fit]
60 | Cc1ccc(CN2CCN(CC(=O)NCc3ccccc3)CC2)cc1 | inconclusive: 35.5 µM [inhibitor, partial curve, poor fit]
61 | c1cc(CNCC2CCCO2)ccn1 (centres undefined) | inconclusive: 15.8 µM [inhibitor, full curve, poor fit]
62 | CCC(=O)Nc1nc(C)c(-c2csc(Nc3ccccn3)n2)s1 | inconclusive: 79.4 µM [inhibitor, partial curve, poor fit]
63 | O=C1C2C(c3ccccc3)C=CC(c3ccccc3)C2C(=O)N1CCO (centres undefined) | inactive
64 | Cc1ccc(NS(=O)(=O)c2ccc3[nH]c4c(c3c2)CCCCC4)cc1 | inconclusive: 56.2 µM [inhibitor, partial curve, poor fit]
